Laboratory results: PubChem BioAssay AID1117359 (Southern Research Institute, 2015)
“And” between values parts separate entries of the source, which are not always exact repeats. Equal entries are not always repeated. About 460 (31%) of roughly 1,500 compounds were called active.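 How the source made its calls: active means viability at or below 80% at any tested concentration, marking the compound as toxic; inactive means the rest.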 This is a selection; strong and weak results do not stand in their true shares. Potency and affinity values are given separately.

Assay: THP-1 cell cytotoxicity, dose response, cytotoxicity control for Vif-APOBEC3G degradation inhibitor project, THP-1 cells (AID 1117359)
Settings: THP-1 viability, CellTiter-Glo luminescence, 72 h; at 40 µM (top of the series)

SMILES | viability
N/C(=N\N=C/c1ccc(-c2ccc(O)c(C(=O)O)c2)o1)N[N+](=O)[O-] | inactive: 85.1%
COCOC1CCC2C3CCC4=CC(=O)CCC4=C3C=CC12C (configuration not stated) | inactive: 103%
CCN(CC)C(=O)c1ccc2c(c1)C1C(Cl)C(Sc3ccccc3[N+](=O)[O-])CC1C(C(=O)O)N2 (configuration not stated) | inactive: 102%
CN1C(=O)/C(=C/C=C/c2ccco2)C(=O)NC1=S | inactive: 97.3%
O=C1NC(=O)C(=Cc2ccc(SC3CCCCC3)o2)C(=O)N1 | inactive: 90.6%
O=C1C=Cc2ccccc2C1=O | inactive: 102%
O=C1NC(=O)N(Cc2ccco2)C(=O)/C1=C/C=C/c1ccco1 | inactive: 86.6%
CSc1ccc(C(=O)C2CCCN(Cc3ccn[nH]3)C2)cc1 (configuration not stated) | inactive: 87.4%
Cc1cccc(OCCn2cccc2/C=C2/C(=O)NC(=O)N(Cc3ccco3)C2=O)c1 | inactive: 87.6%
CCN(CC)c1ccc(N=Cc2c(O)n(CCc3ccc(OC)c(OC)c3)c(=O)[nH]c2=O)cc1 | inactive: 101%
CN1CCN(c2ccc(N)cc2)CC1 | inactive: 113%
COc1ccc(CN2C(=O)NC(=O)/C(=C/c3ccc([N+](=O)[O-])o3)C2=O)cc1 | inactive: 96%
O=C(O)Cn1cc(/C=C2\C(=O)NC(=O)N(Cc3ccco3)C2=O)c2ccccc21 | inactive: 87.1%
CCN1C(=O)N(CC)C(=O)C2(Cc3ccccc3N3CCN(c4ccccc4)CC32)C1=O (configuration not stated) | inactive: 86.3%
Cc1cc(/C=C2\C(=O)NC(=O)N(c3cccc(F)c3)C2=O)c(C)n1-c1cc(C(=O)O)cc(C(=O)O)c1 | inactive: 85.9%
CCN(CC)C(=O)c1ccc2c(c1)C1C=CCC1C(C(=O)O)N2 (configuration not stated) | inactive: 91.2%
COc1ccc(-n2c(O)c(C=NCCN(C)C)c(=O)[nH]c2=O)cc1 | inactive: 110%
CCN(CC)CCN=Cc1c(O)n(Cc2ccco2)c(=O)[nH]c1=O | inactive: 95.4%
CC(Cc1ccc(O)cc1)NCC(O)c1ccc(O)c(O)c1 (configuration not stated) | inactive: 99.5%
O=C1NC(=O)N(c2cccc(Cl)c2)C(=O)/C1=C\c1ccc(Sc2nc3ccccc3[nH]2)o1 | inactive: 106%
NNC(=O)CN1C(=O)CN=C(c2ccccc2)c2cc(Br)ccc21 | inactive: 115%
O=C1CC23c4ccccc4N4C(=O)CC5OCC=C6CN1C2CC6C5C43 (configuration not stated) | inactive: 94%
Cn1c(O)c(/C=N/NC(=O)c2ccncc2)c(=O)[nH]c1=S | inactive: 91.3%
Cc1cccc(N2C(=O)NC(=O)/C(=C/c3cc4c(cc3[N+](=O)[O-])OCO4)C2=O)c1 | inactive: 96.4%
O=C(O)c1ccc2c(c1)C1C(Cl)C(Sc3ccccc3[N+](=O)[O-])CC1C(c1cccc([N+](=O)[O-])c1)N2 (configuration not stated) | inactive: 93.6%
COc1ccccc1N1C(=O)NC(=O)/C(=C/c2ccc([N+](=O)[O-])s2)C1=O | inactive: 80.4%

Of the compounds above, 3 have a Cl atom:
SMILES | viability
CCN(CC)C(=O)c1ccc2c(c1)C1C(Cl)C(Sc3ccccc3[N+](=O)[O-])CC1C(C(=O)O)N2 (configuration not stated) | inactive: 102%
O=C1NC(=O)N(c2cccc(Cl)c2)C(=O)/C1=C\c1ccc(Sc2nc3ccccc3[nH]2)o1 | inactive: 106%
O=C(O)c1ccc2c(c1)C1C(Cl)C(Sc3ccccc3[N+](=O)[O-])CC1C(c1cccc([N+](=O)[O-])c1)N2 (configuration not stated) | inactive: 93.6%

(cont.)

SMILES | viability
O=C1NC(=S)N(c2ccc(F)cc2)C(=O)/C1=C\c1ccoc1 | inactive: 89.7%
Cc1ccc(N2C(=O)NC(=O)/C(=C\C=C\c3ccco3)C2=O)cc1 | inactive: 103%
O=C1NC(=O)C(=CN2CCc3ccccc32)C(=O)N1 | inactive: 86.7%
Cc1cccc(N2C(=O)/C(=C/c3ccc(CN(CCC#N)S(C)(=O)=O)o3)C(=O)NC2=S)c1 | inactive: 111%
Oc1ccc(C[C@H]2NCCc3cc(O)c(O)cc32)cc1O | inactive: 91%
COc1ccc(CN2C(=O)NC(=O)/C(=C/c3ccc([N+](=O)[O-])s3)C2=O)cc1 | inactive: 95.2%
O=C1NC(=O)C(=Cc2ccco2)C(=O)N1 | inactive: 107%
CCc1ccc(N2C(=O)NC(=O)/C(=C\C=C\c3ccco3)C2=O)cc1 | inactive: 94.9%
Cc1ccc(N2C(=O)/C(=C/c3ccc(CN(CCC#N)S(C)(=O)=O)o3)C(=O)NC2=S)cc1 | inactive: 103%
CN(C)[C@@H]1C(=O)C(C(N)=O)=C(O)[C@@]2(O)C(=O)C3=C(O)c4c(O)ccc(Cl)c4[C@@](C)(O)C3C[C@@H]12 (some centres not stated) | inactive: 98.9%
CC1=C(C(=O)O)N2C(=O)[C@@H](NC(=O)CCCC(=O)O)[C@H]2SC1 | inactive: 113%
O=C1NC(=O)N(c2ccc(Cl)cc2)C(=O)/C1=C\c1ccc(Sc2nc3ccccc3[nH]2)o1 | inactive: 105%
CC(=O)Nc1ccc(S(=O)(=O)N2Cc3cnnn3-c3ccccc3C2C#N)cc1 (configuration not stated) | inactive: 99.5%
Oc1ccc(/C=N/NP(=S)(c2ccccc2)c2ccccc2)c(O)c1O | inactive: 85%
C=CCN1C(=O)C2(C(C(=O)OCC)=C(N)Oc3ccccc32)c2c1c1ccccc1oc2=O (configuration not stated) | inactive: 94.2%
O=S(=O)(O)C(=Cc1ccccc1)c1ccccc1 (tested in a mixture with another compound) | inactive: 86.7%
O=C1CC=C2C3CC4N(CCC45c4cc(O)c(O)cc4N1C25)CC3=CCBr (configuration not stated) | inactive: 100%
COc1cccc(N2C(=O)NC(=O)/C(=C/c3ccc([N+](=O)[O-])s3)C2=O)c1 | inactive: 83.2%
O=C(O)C1Cc2ccccc2N2CCCC12 (configuration not stated) | inactive: 106%
O=C1NC(=S)N(c2ccccc2)C(=O)/C1=C/c1ccco1 | inactive: 85.1%
Cc1cc(/C=C2\C(=O)NC(=O)N(Cc3ccco3)C2=O)c(C)n1-c1ccc(O)cc1 | inactive: 96.5%
O=C(O)CC1OCC=C2CN3CCC45C6=CC(=O)C(=O)C([N+](=O)[O-])=C6NC4C1C2CC35 (configuration not stated) | inactive: 92.6% and inactive: 105%
CC(C)c1ccc(C2N3CCCN23)cc1 (configuration not stated) | inactive: 105%
O=C1NC(=O)N(c2ccccc2)C(=O)/C1=C\c1ccc([N+](=O)[O-])s1 | inactive: 84.6%
O=C(O)c1cccc2c1NC(C(=O)O)C1CC(Sc3ccccc3[N+](=O)[O-])C(Cl)C21 (configuration not stated) | inactive: 105%
CCSC1=NN1c1cc(C)nc(N)n1 | inactive: 92.7%
